# From PubChem BioAssay AID504834 (National Center for Advancing Translational Sciences (NCATS), 2011)
# In all, about 320,000 compounds went through this assay and about 22,000 (6.9%) were called active. Inconclusive results, whose numbers are uncertain, are shown with a selection of clear calls. The call rests on the fitted dose curve; in most records, active means well fitted inhibition curve with a large enough effect; inconclusive means small, poorly fitted or top-dose-only effect, or another doubt; inactive means no such curve, though single readings can be large or run the other way. A potency beside an inconclusive call is a rough fit, not a confirmed value.
# Assay: Primary qHTS for delayed death inhibitors of the malarial parasite plastid, 96 hour incubation
# Conditions: P. falciparum luciferase reporter growth; series mostly up to 28.7 µM
# Method in brief: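 P. falciparum expressing integrated firefly luciferase grown in erythrocytes (2% hematocrit, 0.05% parasitemia final) with compounds for 96 hours at 37 C, 5% CO2. Growth inhibition read as loss of luminescence after adding luciferase detection reagent.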
# Potency means the concentration at half of the fitted maximal effect.
row,Compound,Potency
1,CCCCCCC(=O)N/N=C/c1c(O)n(C2CC2)c(=S)[nH]c1=O,"inconclusive: 18.5 µM [inhibitor, single point]"
2,CC(CC1CC(C)(C)OC1=O)C(=O)Nc1ccc([N+](=O)[O-])cc1 (configuration not stated),active: 1.65 µM
3,CCOc1ccc(NC(=O)CC(c2ccccc2)c2ccc(F)cc2)cc1 (configuration not stated),"inconclusive: 18.5 µM [inhibitor, single point]"
4,CCOc1cccc(C(=O)NC2=NCCS2)c1,"inconclusive: 18.5 µM [inhibitor, single point]"
5,COc1cc(NC(=O)Cn2c([N+](=O)[O-])cnc2C)c(OC)cc1Cl,"inconclusive: 18.5 µM [inhibitor, single point]"
6,S=C(Nc1cccc(Cl)c1)N(CCCN1CCCC1)Cc1cccn1Cc1ccc(Cl)cc1,"inconclusive: 10.4 µM [inhibitor, single point]"
7,Cc1cc(CNC(=O)[C@H]2C[C@@H]2[C@H](NP(=O)(c2ccccc2)c2ccccc2)c2ccccc2)nn1C,"inconclusive: 18.5 µM [inhibitor, single point]"
8,CC(=O)Nc1ccc(S(=O)(=O)Nc2nc3ccccc3nc2Nc2ccc(O)c(C(=O)O)c2)cc1,inactive
9,c1ccn2cc(CSC3=NCCS3)nc2c1,inactive
10,Cc1cccc(NC(=O)NCCN2CCCCC2)c1,"inconclusive: 4.15 µM [inhibitor, single point]"
11,O=[N+]([O-])c1ccc(NNS(=O)(=O)c2cc(Cl)ccc2Cl)nc1,"inconclusive: 18.5 µM [inhibitor, single point]"
12,Nc1cccc(C(=O)N/N=C/c2ccsc2)c1,inactive
13,O=CN1CCN(c2c([N+](=O)[O-])c(=O)oc3ccccc23)CC1,"inconclusive: 1.17 µM [inhibitor, partial curve, poor fit]"
14,COc1cc(OC)c(C(=O)OCCCOC(=O)c2cc(OC)c(OC)cc2OC)cc1OC,"inconclusive: 16.5 µM [inhibitor, single point]"
15,Cc1cc(C=C2C(=O)NC(=O)NC2=O)c(C)n1-c1ccc2c(c1)OCO2,"inconclusive: 2.62 µM [inhibitor, single point]"
16,Cc1cc(Nc2ccccc2)n(-c2ccc(Br)cc2)n1,"inconclusive: 9.28 µM [inhibitor, partial curve, poor fit]"
17,CC12CC3CC(C)(C1)CC(C(=O)NC1=NCCS1)(C3)C2,active: 11.7 µM
18,Cc1c(Cl)cccc1NC(=O)Cn1cc(C(F)(F)F)cc(Cl)c1=O,"inconclusive: 13.1 µM [inhibitor, single point]"
19,CCN(CC)S(=O)(=O)c1ccc(N2CC(C(=O)NCCC3=CCCCC3)CC2=O)cc1 (configuration not stated),"inconclusive: 10.4 µM [inhibitor, partial curve, poor fit]"
20,O=C(c1csc(Nc2cccc3ccccc23)n1)N1CCCC1,"inconclusive: 10.4 µM [inhibitor, single point]"
21,CCOC(=O)N1CCN(S(=O)(=O)c2ccc(C(=O)Nc3nnc(CSC)o3)cc2)CC1,inactive

# A different layout for two compounds above.
row	Compound	Potency
12	Nc1cccc(C(=O)N/N=C/c2ccsc2)c1	inactive
13	O=CN1CCN(c2c([N+](=O)[O-])c(=O)oc3ccccc23)CC1	inconclusive: 1.17 µM [inhibitor, partial curve, poor fit]

# (more compounds)

row,Compound,Potency
1,O=C(CSc1ccccn1)Nc1nonc1[N+](=O)[O-],"inconclusive: 0.165 µM [inhibitor, full curve, poor fit]"
2,COc1ccc([N+](=O)[O-])cc1NC(=O)C(C)OC(=O)c1ccccc1C(=O)c1ccc(Cl)cc1 (configuration not stated),"inconclusive: 18.5 µM [inhibitor, single point]"
3,CCOc1ncccc1C(=O)OCc1cccc([N+](=O)[O-])c1,inactive
4,O=C(NCCN1CCN(c2cccc(Cl)c2)CC1)C1CCCN(S(=O)(=O)c2cnc[nH]2)C1 (configuration not stated),"inconclusive: 9.28 µM [inhibitor, single point]"
5,CC(C)CN1C=C2C(=O)C(C)(OC(=O)CCc3ccccc3)C(=O)C=C2C=C1c1ccc(C#N)cc1 (configuration not stated),"inconclusive: 18.5 µM [inhibitor, single point]"
6,CCOC(=O)N1CCC(N2CCCC(C(=O)c3ccc4cc(OC)ccc4c3)C2)CC1 (configuration not stated),"inconclusive: 14.7 µM [inhibitor, single point]"
7,CCn1c(O)c(C2=c3ccccc3=NC2=O)c2cc(Br)ccc21,"inconclusive: 14.7 µM [inhibitor, partial curve, poor fit]"
8,Cc1ccccc1-c1nc(CN(C)C(C)c2ccon2)c(C)o1 (configuration not stated),active: 2.33 µM
9,COC(=O)c1cccc(NC(=O)CSCc2ccccc2)c1,"inconclusive: 2.08 µM [inhibitor, partial curve, poor fit]"
10,COc1ccc(C(=O)O)cc1S(=O)(=O)NCc1ccccn1,"inconclusive: 4.65 µM [inhibitor, partial curve]"
11,O=c1c2ccccc2nc(-c2ccccc2Cl)n1-c1ccc(O)cc1,"inconclusive: 5.22 µM [inhibitor, partial curve, poor fit]"
12,O=C(Cc1cccs1)N1CCCC(c2nc3c(nnn3Cc3cccc(Cl)c3)c(=O)[nH]2)C1 (configuration not stated),inactive
13,CCOC(=O)c1ccc(N2Cc3ccccc3C2=NC(=O)c2cccs2)cc1,"inconclusive: 10.4 µM [inhibitor, single point]"
14,O=C(CCn1c(=S)[nH]c2ccccc2c1=O)NCCc1ccc(Cl)cc1,"inconclusive: 9.28 µM [inhibitor, partial curve, poor fit]"
15,O=C(Nc1ccc(S(=O)(=O)Nc2cnc3ccccc3n2)cc1)c1ccccc1Br,inactive
16,CCCCn1c(N)c(N(CCOC)C(=O)c2ccc(S(=O)(=O)N3CCC(C)CC3)cc2)c(=O)[nH]c1=O,inactive
17,Cc1cccc(Nc2nc(N3CCCC3)nc(N3CCCC3)n2)c1,"inconclusive: 13.1 µM [inhibitor, partial curve, poor fit]"
18,CC1=CC(=C(C#N)C#N)C=C(C)N1Cc1ccc(Cl)cc1,inactive
19,CC1CCCC(C)N1C(=O)CN1C(=O)C(C)(C)Oc2ccc(C(=O)NC3CCCCC3)cc21 (configuration not stated),"inconclusive: 18.5 µM [inhibitor, single point]"
20,Cc1cc(C(=O)OCC(=O)NC(=O)NC(C)(C)C)c(C)o1,"inconclusive: 0.0026 µM [inhibitor, full curve, poor fit]"
21,O=C(CCOc1ccccc1)Nc1ccc(S(=O)(=O)N2CCCC2)cc1,"inconclusive: 11.7 µM [inhibitor, single point]"
